The values that follow come from PubChem BioAssay AID1347423 (Functional Genomics Laboratory (NCATS/FGL), 2020).

Out of some 52,000 sequences screened, about 210 (0.4%) were called active.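 Rule for the calls: active = gene whose silencing raises cell survival under the drug, median off-target-corrected z-score across its silencing RNAs 2 or more; inactive = the rest.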 The list shows a part of the results.

This assay can be described thus: Resistance to Poly (ADP-Ribose) Polymerase inhibitor: Gene Identification via Genome-wide siRNA Screen. The following applies: mouse BRCA2 R2336H ES cells, olaparib, CellTiter-Glo viability; stronger effect = higher value. An excerpt:
The role of Poly (ADP-Ribose) Polymerase (PARP) proteins in DNA repair has been elegantly utilized for the synthetic lethality-based treatment of BRCA-deficient tumors by PARP inhibitors. PARP inhibitors are now being used for treatment of BRCA-deficient breast and ovarian cancers. […] While several mechanisms of drug resistance have been identified, majority of these tumors develop drug resistance due to unknown causes. To identified novel regulators of chemo-resistance in BRCA2-mutated cells, we performed a genome wide siRNA library screen. We have found ES cells expressing a hypomorphic allele of BRCA2 to be hypersensitive to PAPP inhibitors (such as olaparib). We used ES cells expressing a mutant allele of BRCA2 that has a single amino acid substitution at position 2336 (arginine to histidine, R2336H). The screen was conducted using an Ambion (Thermo) Silencer Mouse Genome siRNA collection. The library targets 17,575 mouse genes with 3 siRNAs per gene. TET2 (E130014J05Rik) was identified as a top candidate.
Transfections were performed in 384 well plates (Corning 3707). Plates were coated with 0.1% gelatin in H2O overnight at ambient temperature. Gelatin solution was aspirated (BioTek EL406) and siRNAs were printed using a Bravo VPrep liquid handler integrated within a BioCel automation platform (Agilent). Cell viability was measured using CellTiter Glo (Promega). For transfections, […] of serum free media containing Lipofectamine RNAiMax […] was added to wells containing siRNA (0.8pmol). Lipid and siRNA were allowed to complex for 45 min at ambient temperature before addition of 1000 cells in DMEM, 30% FBS to yield final transfection mixtures containing 20 nM siRNA in DMEM, 15% FBS. PARPi (olaparib, AZD2281) was added 48 h post-transfection (500 nM) and viability (CellTiter Glo, Promega) was assayed 72 h later on a PerkinElmer Envision 2104 Multilabel plate reader. Ambion Silencer Select Negative Control #2 was incorporated on all screening plates (16 wells) and the median negative control value on each plate was used for normalization. An siRNA targeting Trp53 was used as a positive control. This control yielded a median protective effect of ~1.9 fold versus negative control throughout the screen. The median absolute deviation (MAD) based z-score was calculated for each siRNA. Genes were then ranked by taking the median value for all siRNAs tested against a given gene. Scores were also adjusted for seed-based off-target effects to help deprioritize likely false positives.
For the sequence “CGCAGAUGUGUUAACUAAATT against 3110038L01Rik”, the z-score was inactive: 0.116.
Take GGAGAGUGUGUUUUCAGGCTT against Bop1: the z-score was inactive: 1.27.
In the case of GGGUGUCAAUUUACUUUUUTT against Slc16a2, the z-score was inactive: 0.33.
For “GCAUGCAUGUAUUUUUUAGTT against E030018N11Rik” the value was inactive: 0.237; for CCUCUAUGUGAGAUUUGAGTT against Mamdc2, inactive: -0.131.
On to GGUGGUCCAGGGAAGUAGATT against Gucy2e, for which the z-score was inactive: 0.504.
For GGAAACCAUCAUGAAGAAATT against Ysg2, the z-score was inactive: -0.657.
As for GCACGGUGAGAUCAUCAAATT against Ap3b2, the figure is inactive: -0.226; as for GGCUGAAUCGAAGAGACGGTT against Cntnap4, inactive: 1.56.
For “CCCAAAUGUUAUUCCAAAUTT against 9230110C19Rik” the value was inactive: 2.7; for GGAUGCUUUCAAACAUAUGTT against Olfr812, inactive: 0.475.
In the case of GGAUGUCAUCAAUGCUAUGTT against Olfr1022, the z-score is inactive: -0.704.
As for GGACCAGUUACUUUAACAUTT against Pkdrej, the figure is inactive: -0.102; as for GGCCUGCGUCAACUUUCUGTT against Btbd6, inactive: 1.02; as for GGACAAUGGUUCACUUUUATT against Gmpr, inactive: 1.24.
GCCACUUCCGGUCAACUAUTT against Cog1: the z-score is inactive: -1.81.
Turning to GGGUUGUGCAUUUUAUUGGTT against Srd5a2l2, the z-score was inactive: 0.0758.
On to GGCCUAGACUGGUGCAAUGTT against Hapln3, for which the z-score was inactive: 1.61.
In the case of CCUUUGCCUAUGUUUACCATT against Ropn1l, the z-score is inactive: -0.695.
CGAUUUGAACACUGAUCAATT against Bub3: the z-score is inactive: -1.51.
For the sequence GCCUUUUAUACAUGUUUGATT against LOC434198, the z-score was inactive: 0.964.
On to CCAGCCCAUACCCAUUACCTT against Olfr3, for which the z-score was inactive: -0.689.
Take GCUAUAAAUUCAGCAUUGGTT against Gtf2a2: the z-score is inactive: -0.941.
With GGAGAAACAACAGUUUCAGTT against Maml1, the z-score is inactive: 1.63.
For GGCUGUAACCUCUUCAUCUTT against Brunol6, the z-score was inactive: 0.624.
For GGAAGAGAAGUUGUCCAAATT against Creld1 the value was inactive: -0.997; for GCAAAUGUGGGACAGUAAGTT against Wdfy2, inactive: -1.92.
Take “GGACCUAUAGUUCAACAAGTT against 2500001H09Rik”: the z-score is inactive: -1.42.
As for “GGUUACCAGAAAAUAACUATT against E130114P18Rik”, the z-score is inactive: -0.516.
For the sequence CCUAAUUGUAGUAGUACUATT against Olfr117, the z-score was inactive: 0.378.
Regarding GACACUCAGACGGAAUGUUTT against Sct, the z-score was inactive: -1.85.
Regarding “GGAGUUCAAAGACCCUCUGTT against 1810014L12Rik”, the z-score is inactive: -1.32.
Consider GGCCACUUGCCUAUUGUGATT against Anxa6, for which the z-score was inactive: 1.97.
GGUAGACUCUGACUUUGACTT against Tcfl1: the z-score was inactive: -0.768.
For GCCUAUGAGUAUCGAAUGUTT against Trim21, the z-score is inactive: 0.126.
As for “GGAAGCACUUCUGCUUUCUTT against 4933429I20Rik”, the figure is inactive: 0.523; as for CCAUUUCAGGUUCAAUCGGTT against B4galt7, inactive: 1.26.
For GCUAUACGCGAAAUUUGGCTT against Pfdn4 the value was inactive: 0.0886; for GCUUAUGACCCUAAGCACUTT against Tpte, inactive: -0.198; for GGAAAAGGUUUCUUCUAAATT against Nalp2, inactive: 0.176.
On to CCAAGUAUUUCACAAACCGTT against Slc29a1, for which the z-score is inactive: 1.5.
For GGAAUUCUUUCCAAACUGGTT against Steap, the z-score is inactive: -0.74.
GGAGUUUCAGAUGUUGAAATT against Cpne2: the z-score was inactive: 0.44.
Regarding GGCAGAACCCACUGAGAAATT against Akap2, the z-score is inactive: 0.525.
Consider GGCGAGUGCUGAAUCUUUGTT against Pcdhb20, for which the z-score is inactive: -0.105.
For CCUGAAGCUUUUGAUCCUATT against Sec10l1 the value was inactive: 1.25; for GGCACUUUGUGGCAAAUCUTT against Pcdhb1, inactive: -0.786; for GGAUUAUGUAGAGGCCCAATT against Gngt2, inactive: 1.25.
For GCCGGAUGACCUACCAUUUTT against Apoh the value was inactive: 0.649; for GGUACUGAGAGACAUCGAGTT against Tgtp, inactive: -0.0707; for GGAUACCUCAGUGACUACGTT against Scrt1, inactive: -2.17.
On to GGAGCUAGCUGAGAUUUUCTT against Tnnc2, for which the z-score is inactive: 1.06.
GGUUGACGCGCAACAAAAUTT against Gp5: the z-score was inactive: 2.97.
As to GGCAUGAGUGCAUUUGCUATT against Ifi203, the z-score was inactive: -0.0595.
As for “GGAACAGGUACUAGAAGUATT against 9130011E15Rik”, the z-score was inactive: 0.428.
As to GGAAGUGAAGGAAAGCAUCTT against Amaco, the z-score was inactive: -0.315.
As for GCUAUAAAGGUGGUAACACTT against Col7a1, the figure is inactive: 0.388; as for GGCUAUAGUAGGUCUUUCATT against Arhgap1, inactive: -1.99; as for “GGUAAUUAAAACCAUGGAGTT against 2810428I15Rik”, inactive: -0.171.
As to GGGCUUAAGGAAUAAACCATT against Phtf2, the z-score is inactive: -2.02.
In the case of GGGAUCCCACCUGAAAAAATT against Wdr51a, the z-score was inactive: -0.624.
Take GGAUUUUGCUGUUUUGGAATT against Dsc1: the z-score is inactive: 0.892.
For GGCUAAAAAUAACAUCACCTT against Gabra2, the z-score was inactive: 0.904.
As for “CCAAUAAAAAAUGUCUGCATT against 4732473B16Rik”, the figure is inactive: -0.0244; as for GCUUGACAUGUCCUCAGAGTT against BC040823, inactive: -0.158; as for GCCGCUUCCAUUUUCUAUATT against Hic1, inactive: 1.82.
In the case of GCUGGUAUCAUGAUUUUGGTT against LOC333669, the z-score was inactive: 1.74.
